From patent publication EP0358033B1, “Radical polymerizable compositions and their use” (Henkel Kommanditgesellschaft auf Aktien, priority 1988, dated 1990)

Assay: Ability of the acid component to allow initiation of polymerization by the activator system
Settings: acid added to the activator system (tert. amine / metal compound / acid)

| SMILES | Eignung zur Auslösung von Polymerisationsreaktionen |
| --- | --- |
| O=C(O)C(Cl)Cl [Dichloressigsäure] | sehr gut geeignet |
| CC(=O)O [Essigsäure] | eignet sich hervorragend zur beschleunigten Reaktionsauslösung |
| Cl [Salzsäure] | stören ebenfalls die Fähigkeit zur Polymerisationsauslösung |
| O=C(O)C(Cl)(Cl)Cl [Trichloressigsäure] | zerstört die Fähigkeit |
